According to patent US20200172905:
Where cells or extracts were used, other partners may take part.

Amino acid sequences for entries named in this document (tags omitted).
UniProt Q62351, whole entry: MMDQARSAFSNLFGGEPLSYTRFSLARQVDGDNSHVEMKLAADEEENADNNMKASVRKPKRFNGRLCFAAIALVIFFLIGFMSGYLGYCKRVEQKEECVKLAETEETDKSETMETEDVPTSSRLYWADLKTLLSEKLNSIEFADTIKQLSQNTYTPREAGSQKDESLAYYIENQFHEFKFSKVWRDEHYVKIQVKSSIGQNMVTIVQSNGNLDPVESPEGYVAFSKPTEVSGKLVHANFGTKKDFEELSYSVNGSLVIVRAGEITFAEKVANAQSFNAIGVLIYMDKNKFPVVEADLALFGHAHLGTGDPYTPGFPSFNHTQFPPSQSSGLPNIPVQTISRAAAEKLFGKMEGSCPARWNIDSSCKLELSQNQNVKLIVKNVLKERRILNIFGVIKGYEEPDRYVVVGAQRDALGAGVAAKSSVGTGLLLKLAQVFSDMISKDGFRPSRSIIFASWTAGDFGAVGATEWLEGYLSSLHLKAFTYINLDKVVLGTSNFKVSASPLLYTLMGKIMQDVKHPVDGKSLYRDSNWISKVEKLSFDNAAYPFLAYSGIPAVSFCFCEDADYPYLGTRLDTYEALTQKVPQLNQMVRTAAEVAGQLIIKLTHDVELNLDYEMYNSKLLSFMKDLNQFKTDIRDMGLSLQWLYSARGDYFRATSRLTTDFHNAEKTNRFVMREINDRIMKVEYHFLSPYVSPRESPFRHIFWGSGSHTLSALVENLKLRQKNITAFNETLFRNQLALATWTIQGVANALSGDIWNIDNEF

Key:
[1] = biological target: Transferrin receptor (TfR) on HepG2 / PANC-1 cells (Homo sapiens) (UniProt P02786); assay: binding assay; conditions: 2'-F (library of 2'F RNAs; positions not stated), protein on the cell surface, label: biotin (SPR)
[2] = biological target: Transferrin receptor (TfR) on LTPA cells (Mus musculus) (UniProt Q62351); assay: binding assay; conditions: 2'-F (library of 2'F RNAs; positions not stated); 200 nM Cy3 aptamer, 2 h, live-cell confocal; internalised into mouse LTPA, cross-reactive between species; protein on the cell surface; label: biotin (SPR), Cy3 (cell imaging); variant of TR14 (87-mer)

Does “GGGAGACAAGAAUAAACGCUCAAUGCGUUCACGUUUAUUCACAUUUUUGAAUUGAGCAUGAGCUUCGACAGGAGGCUCACAACAGGC [TR14 (87-mer)]” bind ([1]; internalised into HepG2 cells, CITED WO 2006/061386)?
Result: binds

Does “GGGGCUCAAUGCGUUCACGUUUAUUCACAUUUUUGAAUUGAGC [TR14 S2 (43-mer)]” bind ([1]; internalised into HepG2 cells, CITED WO 2006/061386, variant of TR14 (87-mer))?
Result: binds

What does the source list for “UUUAUUCACAUUUUUGAAUUGA [TR14 S1-3 (22-mer)]”?
binding result [2]: binds; binding result ([1]; 200 nM Cy3 aptamer, 2 h, live-cell confocal, internalised into HepG2 and PANC-1, 5 mM MgCl2, Cy3 (cell imaging), variant of TR14 (87-mer)): binds
